Experimental data published in article PMC9456370.

Target: T1, His6-tagged LapD protein (E. coli K-12) (UniProt P0ADW3)
T1 sequence: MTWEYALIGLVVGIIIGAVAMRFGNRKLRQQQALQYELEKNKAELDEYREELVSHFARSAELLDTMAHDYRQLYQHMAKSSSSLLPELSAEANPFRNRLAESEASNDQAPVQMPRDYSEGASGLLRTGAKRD
Test: affinity purification with mass spectrometry; His6-LapD (pCA24N JW5539 in BW25113) from IM fraction solubilized with 2% octyl-β-D-glucoside, on nickel-nitrilotriacetic acid beads, eluted with 250 mM and 100 mM imidazole; co-eluting proteins resolved on 12% SDS-PAGE (Coomassie) and identified by MALDI-TOF

B1: WbbJ (enzyme, UniProt P37750 1-196)
chain: MILKLAKRYGLCGFIRLVRDVLLTRVFYRNCRIIRFPCYIRNDGSINFGENFTSGVGLRLDAFGRGVIFFSDNVQVNDYVHIASIESVTIGRDTLIASKVFITDHNHGSFKHSDPMSSPNIPPDMRTLESSAVVIGQRVWLGENVTVLPGTIIGNGVVVGANSVVRGSIPENTVIAGVPAKIIKKYNHETKLWEKA
binding: binds

B2: LapB (protein, UniProt P0AB58 1-389)
chain: MLELLFLLLPVAAAYGWYMGRRSAQQNKQDEANRLSRDYVAGVNFLLSNQQDKAVDLFLDMLKEDTGTVEAHLTLGNLFRSRGEVDRAIRIHQTLMESASLTYEQRLLAIQQLGRDYMAAGLYDRAEDMFNQLTDETDFRIGALQQLLQIYQATSEWQKAIDVAERLVKLGKDKQRVEIAHFYCELALQHMASDDLDRAMTLLKKGAAADKNSARVSIMMGRVFMAKGEYAKAVESLQRVISQDRELVSETLEMLQTCYQQLGKTAEWAEFLQRAVEENTGADAELMLADIIEARDGSEAAQVYITRQLQRHPTMRVFHKLMDYHLNEAEEGRAKESLMVLRDMVGEKVRSKPRYRCQKCGFTAYTLYWHCPSCRAWSTIKPIRGLDGL
binding: binds

B3: LptB (protein, UniProt P0A9V1 1-241)
chain: MATLTAKNLAKAYKGRRVVEDVSLTVNSGEIVGLLGPNGAGKTTTFYMVVGIVPRDAGNIIIDDDDISLLPLHARARRGIGYLPQEASIFRRLSVYDNLMAVLQIRDDLSAEQREDRANELMEEFHIEHLRDSMGQSLSGGERRRVEIARALAANPKFILLDEPFAGVDPISVIDIKRIIEHLRDSGLGVLITDHNVRETLAVCERAYIVSQGHLIAHGTPTEILQDEHVKRVYLGEDFRL
binding: binds

B4: LptC (protein, UniProt P0ADV9 1-191)
chain: MSKARRWVIIVLSLAVLVMIGINMAEKDDTAQVVVNNNDPTYKSEHTDTLVYNPEGALSYRLIAQHVEYYSDQAVSWFTQPVLTTFDKDKIPTWSVKADKAKLTNDRMLYLYGHVEVNALVPDSQLRRITTDNAQINLVTQDVTSEDLVTLYGTTFNSSGLKMRGNLRSKNAELIEKVRTSYEIQNKQTQP
binding: binds

B5: PssA (phosphatidylserine synthase) (enzyme, UniProt P23830 1-451)
chain: MLSKFKRNKHQQHLAQLPKISQSVDDVDFFYAPADFRETLLEKIASAKQRICIVALYLEQDDGGKGILNALYEAKRQRPELDVRVLVDWHRAQRGRIGAAASNTNADWYCRMAQENPGVDVPVYGVPINTREALGVLHFKGFIIDDSVLYSGASLNDVYLHQHDKYRYDRYHLIRNRKMSDIMFEWVTQNIMNGRGVNRLDDVNRPKSPEIKNDIRLFRQELRDAAYHFQGDADNDQLSVTPLVGLGKSSLLNKTIFHLMPCAEQKLTICTPYFNLPAILVRNIIQLLREGKKVEIIVGDKTANDFYIPEDEPFKIIGALPYLYEINLRRFLSRLQYYVNTDQLVVRLWKDDDNTYHLKGMWVDDKWMLITGNNLNPRAWRLDLENAILIHDPQLELAPQREKELELIREHTTIVKHYRDLQSIADYPVKVRKLIRRLRRIRIDRLISRIL
binding: binds

B6: AccD (enzyme, UniProt P0A9Q5 1-304)
chain: MSWIERIKSNITPTRKASIPEGVWTKCDSCGQVLYRAELERNLEVCPKCDHHMRMTARNRLHSLLDEGSLVELGSELEPKDVLKFRDSKKYKDRLASAQKETGEKDALVVMKGTLYGMPVVAAAFEFAFMGGSMGSVVGARFVRAVEQALEDNCPLICFSASGGARMQEALMSLMQMAKTSAALAKMQERGLPYISVLTDPTMGGVSASFAMLGDLNIAEPKALIGFAGPRVIEQTVREKLPPGFQRSEFLIEKGAIDMIVRRPEMRLKLASILAKLMNLPAPNPEAPREGVVVPPVPDQEPEA
binding: binds

B7: FabB (enzyme, UniProt P0A953 1-406)
chain: MKRAVITGLGIVSSIGNNQQEVLASLREGRSGITFSQELKDSGMRSHVWGNVKLDTTGLIDRKVVRFMSDASIYAFLSMEQAIADAGLSPEAYQNNPRVGLIAGSGGGSPRFQVFGADAMRGPRGLKAVGPYVVTKAMASGVSACLATPFKIHGVNYSISSACATSAHCIGNAVEQIQLGKQDIVFAGGGEELCWEMACEFDAMGALSTKYNDTPEKASRTYDAHRDGFVIAGGGGMVVVEELEHALARGAHIYAEIVGYGATSDGADMVAPSGEGAVRCMKMAMHGVDTPIDYLNSHGTSTPVGDVKELAAIREVFGDKSPAISATKAMTGHSLGAAGVQEAIYSLLMLEHGFIAPSINIEELDEQAAGLNIVTETTDRELTTVMSNSFGFGGTNATLVMRKLKD
binding: binds

Results are given in words; binding and its absence hold for the method and conditions named. Binding seen in cells or lysates may run through a third protein. These calls come from enrichment with a bait or labelling near it, and not all partners need be listed. Sequences can lack the tags named with a protein.
